Test results taken from patent US10030064B2, “Mammalian cell culture processes for protein production” (priority 2009, dated 2018).
For at least one compound, name, drawing or mass did not settle the structure.

Experiments:
Assay type in all cases: cell-based, Chinese hamster
[1] = test system: β1,4-galactosyltransferase (β1,4-GT); assay: Western blot of β1,4-galactosyltransferase in DEX treated CHO cells; settings: DEX 0.1 μM to 10 μM added day 2, cells harvested after three days, vs cultures without DEX
GILZ = assay: Western blot of GILZ protein in CHO cells; settings: 1 μM DEX, vs untreated samples
Experimental: Approximately 10^7 CHO cells were washed with 1× phosphate buffered saline (PBS) solution, lysed with 1 mL of Laemmli sample buffer (Bio-Rad Laboratories, Hercules, Calif.), and then denatured at 90° C. for 5 minutes. […] Membranes were stripped and re-probed with β-actin antibody (Santa Cruz Biotechnology) and an HRP-conjugated anti-mouse secondary antibody. Immunodetection was performed with the enhanced chemiluminescence Western blotting detection system (GE Healthcare UK Limited Little Chalfont, Buckinghamshire, UK) and visualized with a VersaDoc Imaging System (Bio-Rad Laboratories, Hercules, Calif.).
The blot was also reprobed with the beta-actin antibody as a control to assess equivalent gel loading.

glutathione reductase = assay: Western blot of glutathione reductase in CHO cells; settings: DEX at various concentrations, seen even at 1 nM; cells collected day 5
CHO cells = assay: 7, 10 and 20-L scale bioreactor runs: glycoprotein sialylation; settings: DEX added as a bolus or in the feed medium; p value<0.001 by t-test
[2] = test system: α2,3-sialyltransferase (α2,3-ST); assay: Western blot of α2,3-sialyltransferase in DEX treated CHO cells; settings: DEX 0.1 μM to 10 μM added day 2, cells harvested after three days, vs cultures without DEX
[3] = test system: CHO cell line with CTLA4Ig secretion; assay: Shake flask culture of CHO cell line secreting CTLA4Ig: sialic acid content and HMW level of CTLA4Ig; settings: DEX 0.001 to 10 μM, even at 0.001 μM

Question: What does the source list for C[C@@H]1C[C@H]2[C@@H]3CCC4=CC(=O)C=C[C@]4(C)[C@@]3(F)[C@@H](O)C[C@]2(C)[C@@]1(O)C(=O)CO [DEX, dexamethasone]?
Answer: expression of β1,4-GT [1]: increased substantially; expression of GILZ protein (GILZ): significantly increased; expression of glutathione reductase (glutathione reductase): increased; final sialic acid content and final sialylated species fraction vs untreated runs (CHO cells): significant sialylation improvement; expression of α2,3-ST [2]: increased substantially; HMW species of glycoprotein CTLA4Ig [3]: reducing the HMW species; sialylation of glycoprotein CTLA4Ig [3]: increasing the sialylation
